In article PMC10023806 one finds binding data, which are given here for eight molecules.

Amino acid sequences for entries named in this document (tags omitted).
UniProt P46937: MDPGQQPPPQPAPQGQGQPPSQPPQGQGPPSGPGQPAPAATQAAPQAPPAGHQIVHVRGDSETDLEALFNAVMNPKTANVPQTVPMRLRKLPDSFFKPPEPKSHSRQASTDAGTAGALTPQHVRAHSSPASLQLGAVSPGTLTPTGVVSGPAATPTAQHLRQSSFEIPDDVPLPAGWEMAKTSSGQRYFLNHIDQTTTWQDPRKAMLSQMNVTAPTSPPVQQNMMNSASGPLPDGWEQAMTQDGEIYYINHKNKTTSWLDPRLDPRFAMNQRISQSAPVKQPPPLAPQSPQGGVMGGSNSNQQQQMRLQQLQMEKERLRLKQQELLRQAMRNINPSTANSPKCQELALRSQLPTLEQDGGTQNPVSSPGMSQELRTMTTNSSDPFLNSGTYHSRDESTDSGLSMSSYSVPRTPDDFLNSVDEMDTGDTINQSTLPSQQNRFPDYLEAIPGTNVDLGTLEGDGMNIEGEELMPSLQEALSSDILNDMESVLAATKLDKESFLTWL
UniProt Q92922: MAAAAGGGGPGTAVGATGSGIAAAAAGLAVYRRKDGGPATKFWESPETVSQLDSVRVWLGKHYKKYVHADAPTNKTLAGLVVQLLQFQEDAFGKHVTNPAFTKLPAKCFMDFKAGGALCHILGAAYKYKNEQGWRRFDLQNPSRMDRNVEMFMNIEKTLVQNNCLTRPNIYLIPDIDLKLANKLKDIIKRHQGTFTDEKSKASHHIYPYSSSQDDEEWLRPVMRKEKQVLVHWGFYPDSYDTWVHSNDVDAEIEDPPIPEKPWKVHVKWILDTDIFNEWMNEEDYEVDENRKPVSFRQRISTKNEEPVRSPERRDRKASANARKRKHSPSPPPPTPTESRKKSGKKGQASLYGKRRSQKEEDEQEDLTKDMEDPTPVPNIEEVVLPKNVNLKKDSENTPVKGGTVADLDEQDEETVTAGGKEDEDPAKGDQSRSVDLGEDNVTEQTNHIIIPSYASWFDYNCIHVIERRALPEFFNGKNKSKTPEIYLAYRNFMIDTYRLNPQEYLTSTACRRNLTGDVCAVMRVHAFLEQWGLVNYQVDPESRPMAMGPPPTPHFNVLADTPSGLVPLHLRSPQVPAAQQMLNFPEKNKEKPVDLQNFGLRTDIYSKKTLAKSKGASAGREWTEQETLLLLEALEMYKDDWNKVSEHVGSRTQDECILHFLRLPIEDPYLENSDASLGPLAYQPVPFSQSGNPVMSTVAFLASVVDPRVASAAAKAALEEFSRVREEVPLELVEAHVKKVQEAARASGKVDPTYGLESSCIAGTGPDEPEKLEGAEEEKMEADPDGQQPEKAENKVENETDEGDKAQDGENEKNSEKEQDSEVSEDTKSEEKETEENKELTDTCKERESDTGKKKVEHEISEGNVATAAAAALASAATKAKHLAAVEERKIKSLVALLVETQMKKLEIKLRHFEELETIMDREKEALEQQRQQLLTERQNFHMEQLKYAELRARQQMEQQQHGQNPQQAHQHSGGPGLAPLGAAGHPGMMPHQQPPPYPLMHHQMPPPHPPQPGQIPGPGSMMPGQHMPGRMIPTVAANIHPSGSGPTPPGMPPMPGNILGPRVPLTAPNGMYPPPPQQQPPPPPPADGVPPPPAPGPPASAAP
UniProt Q969G3: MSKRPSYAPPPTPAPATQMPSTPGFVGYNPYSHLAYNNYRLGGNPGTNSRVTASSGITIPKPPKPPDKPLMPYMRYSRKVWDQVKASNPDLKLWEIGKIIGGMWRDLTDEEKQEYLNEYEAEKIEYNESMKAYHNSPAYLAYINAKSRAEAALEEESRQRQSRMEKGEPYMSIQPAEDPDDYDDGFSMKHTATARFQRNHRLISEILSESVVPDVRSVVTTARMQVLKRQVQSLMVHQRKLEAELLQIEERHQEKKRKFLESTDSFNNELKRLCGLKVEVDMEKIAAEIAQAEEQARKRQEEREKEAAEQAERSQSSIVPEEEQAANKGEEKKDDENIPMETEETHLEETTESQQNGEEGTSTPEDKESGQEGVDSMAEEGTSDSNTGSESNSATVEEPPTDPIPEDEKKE
UniProt Q9H8M2: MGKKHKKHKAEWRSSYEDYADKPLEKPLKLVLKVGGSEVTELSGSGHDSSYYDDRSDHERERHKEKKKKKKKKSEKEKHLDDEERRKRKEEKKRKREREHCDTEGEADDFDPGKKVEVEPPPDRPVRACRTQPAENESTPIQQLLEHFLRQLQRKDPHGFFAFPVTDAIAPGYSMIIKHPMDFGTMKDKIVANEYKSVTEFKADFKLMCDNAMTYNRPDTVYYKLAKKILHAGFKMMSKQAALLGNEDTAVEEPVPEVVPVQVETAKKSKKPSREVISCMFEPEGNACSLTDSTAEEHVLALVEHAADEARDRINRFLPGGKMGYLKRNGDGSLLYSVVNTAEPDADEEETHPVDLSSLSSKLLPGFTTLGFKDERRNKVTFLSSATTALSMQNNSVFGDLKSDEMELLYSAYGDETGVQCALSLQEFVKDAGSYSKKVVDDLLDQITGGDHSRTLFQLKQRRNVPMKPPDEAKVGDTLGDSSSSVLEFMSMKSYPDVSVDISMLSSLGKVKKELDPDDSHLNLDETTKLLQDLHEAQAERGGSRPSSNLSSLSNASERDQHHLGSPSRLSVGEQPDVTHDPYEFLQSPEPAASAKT

Results are given in words; binding and its absence hold for the method and conditions named. In cells and extracts the contact can be indirect. Here binding means that the protein was enriched with, or labelled near, the bait; the list need not be complete. Sequences can lack the tags named with a protein.

Test [1] concerns the target T1, FLAG-BirA*-GEMC1 (human) (UniProt A6NCL1).
T1 sequence: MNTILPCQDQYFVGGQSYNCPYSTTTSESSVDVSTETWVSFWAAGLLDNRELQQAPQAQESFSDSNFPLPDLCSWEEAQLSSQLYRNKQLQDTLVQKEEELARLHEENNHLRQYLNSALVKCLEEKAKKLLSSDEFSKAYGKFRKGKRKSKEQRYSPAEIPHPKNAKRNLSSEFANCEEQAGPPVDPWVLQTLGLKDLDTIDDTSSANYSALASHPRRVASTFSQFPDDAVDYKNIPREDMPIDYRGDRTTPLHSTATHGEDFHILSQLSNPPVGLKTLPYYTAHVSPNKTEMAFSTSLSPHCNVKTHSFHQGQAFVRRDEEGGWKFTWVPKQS
The test is described as follows: proximity labelling; BioID-MS: FLAG-BirA* fusions transiently expressed in AD-293 cells with 50 uM biotin; lysis in modified RIPA, benzonase; biotinylated proteins isolated on streptavidin-sepharose, trypsin, mass spectrometry, SAINTexpress; FLAG-BirA* alone as control.

For test [2], the target named is T2, FLAG-BirA*-MCIDAS (human) (UniProt D6RGH6).
T2 sequence: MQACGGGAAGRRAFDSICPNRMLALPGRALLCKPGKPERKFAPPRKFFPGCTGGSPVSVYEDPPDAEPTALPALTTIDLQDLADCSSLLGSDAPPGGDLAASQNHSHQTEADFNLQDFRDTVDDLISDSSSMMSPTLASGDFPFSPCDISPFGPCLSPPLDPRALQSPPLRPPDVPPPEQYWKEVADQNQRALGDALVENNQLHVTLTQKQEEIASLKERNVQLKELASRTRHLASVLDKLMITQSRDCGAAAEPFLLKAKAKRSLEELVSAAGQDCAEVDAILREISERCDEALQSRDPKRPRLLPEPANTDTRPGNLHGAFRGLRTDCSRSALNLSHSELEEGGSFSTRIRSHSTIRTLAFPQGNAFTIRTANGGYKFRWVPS
The test is described as above.

In test [3] the target is T1, FLAG-BirA*-GEMC1 (human). The test is described as follows: proximity labelling; small scale BioID-AP followed by western blotting: FLAG-BirA* fusions in transfected AD-293 cells, streptavidin-sepharose purification, blots for endogenous proteins. In general terms: In western blotting, separated proteins are transferred to a membrane and probed.
Test [4] deals with T2, FLAG-BirA*-MCIDAS (human). Described as above.
For test [5], the target named is T2, FLAG-BirA*-MCIDAS (human). The test is described as follows: proximity labelling; BioID-AP western in doxycycline-induced DBTRG-05MG cells at Day 3, with or without dBRD9.
Test [6] has as its target T3, FLAG-BirA*-GEMC1 (human), A6NCL1.
T3 chain: T1 sequence
The test is described as follows: proximity labelling; BioID-MS: FLAG-BirA* fusions transiently expressed in AD-293 cells with 50 uM biotin; lysis in modified RIPA, benzonase; biotinylated proteins isolated on streptavidin-sepharose, trypsin, mass spectrometry, SAINTexpress; FLAG-BirA* alone as control. To be noted: remark: other sources report otherwise.

For the molecule YAP1 (from UniProt P46937 1-504), the binding entry (with FLAG-BirA*-GEMC1 (human) [1]; in test [2]; with FLAG-BirA*-GEMC1 (human) [3]; in test [4]) was “binds” throughout.

Regarding “SMARCC1 (BAF155) (from UniProt Q92922 1-1105)”, the binding entry (with FLAG-BirA*-GEMC1 (human) [3]; in test [4]) was “binds” each time.

Take “SMARCE1 (BAF57) (from UniProt Q969G3 1-411)”: the binding entry (in the test with FLAG-BirA*-GEMC1 (human) [3]; in test [4]) was “binds” in each case.

Consider BRD9 (from UniProt Q9H8M2 1-597), for which the binding entry in test [5], in test [2] and in test [4] was “binds” throughout.

B1: p107 (RBL1) (protein, UniProt P28749 1-1068)
chain: MFEDKPHAEGAAVVAAAGEALQALCQELNLDEGSAAEALDDFTAIRGNYSLEGEVTHWLACSLYVACRKSIIPTVGKGIMEGNCVSLTRILRSAKLSLIQFFSKMKKWMDMSNLPQEFRERIERLERNFEVSTVIFKKYEPIFLDIFQNPYEEPPKLPRSRKQRRIPCSVKDLFNFCWTLFVYTKGNFRMIGDDLVNSYHLLLCCLDLIFANAIMCPNRQDLLNPSFKGLPSDFHTADFTASEEPPCIIAVLCELHDGLLVEAKGIKEHYFKPYISKLFDRKILKGECLLDLSSFTDNSKAVNKEYEEYVLTVGDFDERIFLGADAEEEIGTPRKFTRDTPLGKLTAQANVEYNLQQHFEKKRSFAPSTPLTGRRYLREKEAVITPVASATQSVSRLQSIVAGLKNAPSDQLINIFESCVRNPVENIMKILKGIGETFCQHYTQSTDEQPGSHIDFAVNRLKLAEILYYKILETVMVQETRRLHGMDMSVLLEQDIFHRSLMACCLEIVLFAYSSPRTFPWIIEVLNLQPFYFYKVIEVVIRSEEGLSRDMVKHLNSIEEQILESLAWSHDSALWEALQVSANKVPTCEEVIFPNNFETGNGGNVQGHLPLMPMSPLMHPRVKEVRTDSGSLRRDMQPLSPISVHERYSSPTAGSAKRRLFGEDPPKEMLMDKIITEGTKLKIAPSSSITAENVSILPGQTLLTMATAPVTGTTGHKVTIPLHGVANDAGEITLIPLSMNTNQESKVKSPVSLTAHSLIGASPKQTNLTKAQEVHSTGINRPKRTGSLALFYRKVYHLASVRLRDLCLKLDVSNELRRKIWTCFEFTLVHCPDLMKDRHLDQLLLCAFYIMAKVTKEERTFQEIMKSYRNQPQANSHVYRSVLLKSIPREVVAYNKNINDDFEMIDCDLEDATKTPDCSSGPVKEERGDLIKFYNTIYVGRVKSFALKYDLANQDHMMDAPPLSPFPHIKQQPGSPRRISQQHSIYISPHKNGSGLTPRSALLYKFNGSPSKSLKDINNMIRQGEQRTKKRVIAIDSDAESPAKRVCQENDDVLLKRLQDVVSERANH
As to B1, the binding entry (with FLAG-BirA*-GEMC1 (human) [1]; in test [2]) was “binds” throughout.

B2: CDT1, Q9H211 1-546 (protein)
chain: MEQRRVTDFFARRRPGPPRIAPPKLACRTPSPARPALRAPASATSGSRKRARPPAAPGRDQARPPARRRLRLSVDEVSSPSTPEAPDIPACPSPGQKIKKSTPAAGQPPHLTSAQDQDTISELASCLQRARELGARVRALKASAQDAGESCTPEAEGRPEEPCGEKAPAYQRFHALAQPGLPGLVLPYKYQVLAEMFRSMDTIVGMLHNRSETPTFAKVQRGVQDMMRRRFEECNVGQIKTVYPASYRFRQERSVPTFKDGTRRSDYQLTIEPLLEQEADGAAPQLTASRLLQRRQIFSQKLVEHVKEHHKAFLASLSPAMVVPEDQLTRWHPRFNVDEVPDIEPAALPQPPATEKLTTAQEVLARARNLISPRMEKALSQLALRSAAPSSPGSPRPALPATPPATPPAASPSALKGVSQDLLERIRAKEAQKQLAQMTRCPEQEQRLQRLERLPELARVLRSVFVSERKPALSMEVACARMVGSCCTIMSPGEMEKHLLLLSELLPDWLSLHRIRTDTYVKLDKAADLAHITARLAHQTRAEEGL
Take B2: the binding entry in test [6] is reported as “binds”.

B3: TP73 (protein, UniProt O15350 1-636)
chain: MAQSTATSPDGGTTFEHLWSSLEPDSTYFDLPQSSRGNNEVVGGTDSSMDVFHLEGMTTSVMAQFNLLSSTMDQMSSRAASASPYTPEHAASVPTHSPYAQPSSTFDTMSPAPVIPSNTDYPGPHHFEVTFQQSSTAKSATWTYSPLLKKLYCQIAKTCPIQIKVSTPPPPGTAIRAMPVYKKAEHVTDVVKRCPNHELGRDFNEGQSAPASHLIRVEGNNLSQYVDDPVTGRQSVVVPYEPPQVGTEFTTILYNFMCNSSCVGGMNRRPILIIITLEMRDGQVLGRRSFEGRICACPGRDRKADEDHYREQQALNESSAKNGAASKRAFKQSPPAVPALGAGVKKRRHGDEDTYYLQVRGRENFEILMKLKESLELMELVPQPLVDSYRQQQQLLQRPSHLQPPSYGPVLSPMNKVHGGMNKLPSVNQLVGQPPPHSSAATPNLGPVGPGMLNNHGHAVPANGEMSSSHSAQSMVSGSHCTPPPPYHADPSLVSFLTGLGCPNCIEYFTSQGLQSIYHLQNLTIEDLGALKIPEQYRMTIWRGLQDLKQGHDYSTAQQLLRSSNAATISIGGSGELQRQRVMEAVHFRVRHTITIPNRGGPGGGPDEWADFGFDLPDCKARKQPIKEEFTEAEIH
Consider B3, for which the binding entry (with FLAG-BirA*-GEMC1 (human) [1]; in test [2]) was “binds” each time.

B4: RB (RB1) (protein, UniProt P06400 1-928)
chain: MPPKTPRKTAATAAAAAAEPPAPPPPPPPEEDPEQDSGPEDLPLVRLEFEETEEPDFTALCQKLKIPDHVRERAWLTWEKVSSVDGVLGGYIQKKKELWGICIFIAAVDLDEMSFTFTELQKNIEISVHKFFNLLKEIDTSTKVDNAMSRLLKKYDVLFALFSKLERTCELIYLTQPSSSISTEINSALVLKVSWITFLLAKGEVLQMEDDLVISFQLMLCVLDYFIKLSPPMLLKEPYKTAVIPINGSPRTPRRGQNRSARIAKQLENDTRIIEVLCKEHECNIDEVKNVYFKNFIPFMNSLGLVTSNGLPEVENLSKRYEEIYLKNKDLDARLFLDHDKTLQTDSIDSFETQRTPRKSNLDEEVNVIPPHTPVRTVMNTIQQLMMILNSASDQPSENLISYFNNCTVNPKESILKRVKDIGYIFKEKFAKAVGQGCVEIGSQRYKLGVRLYYRVMESMLKSEEERLSIQNFSKLLNDNIFHMSLLACALEVVMATYSRSTSQNLDSGTDLSFPWILNVLNLKAFDFYKVIESFIKAEGNLTREMIKHLERCEHRIMESLAWLSDSPLFDLIKQSKDREGPTDHLESACPLNLPLQNNHTAADMYLSPVRSPKKKGSTTRVNSTANAETQATSAFQTQKPLKSTSLSLFYKKVYRLAYLRLNTLCERLLSEHPELEHIIWTLFQHTLQNEYELMRDRHLDQIMMCSMYGICKVKNIDLKFKIIVTAYKDLPHAVQETFKRVLIKEEEYDSIIVFYNSVFMQRLKTNILQYASTRPPTLSPIPHIPRSPYKFPSSPLRIPGGNIYISPLKSPYKISEGLPTPTKMTPRSRILVSIGESFGTSEKFQKINQMVCNSDRVLKRSAEGSNPPKPLKKLRFDIEGSDEADGSKHLPGESKFQQKLAEMTSTRTRMQKQKMNDSMDTSNKEEK
B4: the binding entry (with FLAG-BirA*-GEMC1 (human) [1]; in test [2]) was “binds” each time.
